This is one part of the list.

Protein sequences, listed by entry. Tags and fused reporters are not part of them. Lines headed by an entry give the natural chain unless they say otherwise; changes in a name come on top.
UniProt Q9NZB2: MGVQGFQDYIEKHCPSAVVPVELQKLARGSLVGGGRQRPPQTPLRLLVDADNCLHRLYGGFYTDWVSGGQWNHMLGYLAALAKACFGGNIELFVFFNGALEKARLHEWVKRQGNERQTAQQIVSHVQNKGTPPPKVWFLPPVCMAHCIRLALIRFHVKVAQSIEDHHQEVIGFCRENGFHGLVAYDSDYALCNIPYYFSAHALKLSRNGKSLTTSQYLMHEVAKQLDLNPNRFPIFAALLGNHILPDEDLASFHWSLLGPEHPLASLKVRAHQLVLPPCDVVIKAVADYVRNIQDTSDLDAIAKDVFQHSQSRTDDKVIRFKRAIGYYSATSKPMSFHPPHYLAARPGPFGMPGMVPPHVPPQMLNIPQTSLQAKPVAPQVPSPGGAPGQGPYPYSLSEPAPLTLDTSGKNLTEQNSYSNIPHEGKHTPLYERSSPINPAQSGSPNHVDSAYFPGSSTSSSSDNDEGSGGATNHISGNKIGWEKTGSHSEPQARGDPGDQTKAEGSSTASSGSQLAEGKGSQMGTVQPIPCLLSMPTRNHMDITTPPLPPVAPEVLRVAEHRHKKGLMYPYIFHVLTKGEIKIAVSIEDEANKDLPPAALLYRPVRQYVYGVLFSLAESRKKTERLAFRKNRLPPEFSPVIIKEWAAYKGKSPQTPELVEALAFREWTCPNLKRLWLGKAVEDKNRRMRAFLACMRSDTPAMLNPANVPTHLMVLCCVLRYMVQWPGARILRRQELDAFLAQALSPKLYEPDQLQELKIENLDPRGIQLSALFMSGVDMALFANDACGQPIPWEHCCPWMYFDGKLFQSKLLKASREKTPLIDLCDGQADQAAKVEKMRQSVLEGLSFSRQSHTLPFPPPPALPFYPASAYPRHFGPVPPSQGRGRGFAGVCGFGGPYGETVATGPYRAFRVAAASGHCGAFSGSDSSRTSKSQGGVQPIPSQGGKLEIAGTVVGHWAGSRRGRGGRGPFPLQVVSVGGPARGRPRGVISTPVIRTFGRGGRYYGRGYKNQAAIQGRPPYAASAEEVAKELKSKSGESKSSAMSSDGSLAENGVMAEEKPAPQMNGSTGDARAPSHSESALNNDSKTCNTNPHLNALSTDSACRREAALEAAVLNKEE
UniProt Q9NQT4, whole entry, looked up: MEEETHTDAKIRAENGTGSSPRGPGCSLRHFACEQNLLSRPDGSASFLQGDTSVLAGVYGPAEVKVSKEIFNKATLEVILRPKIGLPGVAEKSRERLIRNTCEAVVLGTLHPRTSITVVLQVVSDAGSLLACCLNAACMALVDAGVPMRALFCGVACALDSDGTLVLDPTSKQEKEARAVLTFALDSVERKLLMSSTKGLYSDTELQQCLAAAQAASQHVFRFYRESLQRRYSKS
UniProt Q96A65: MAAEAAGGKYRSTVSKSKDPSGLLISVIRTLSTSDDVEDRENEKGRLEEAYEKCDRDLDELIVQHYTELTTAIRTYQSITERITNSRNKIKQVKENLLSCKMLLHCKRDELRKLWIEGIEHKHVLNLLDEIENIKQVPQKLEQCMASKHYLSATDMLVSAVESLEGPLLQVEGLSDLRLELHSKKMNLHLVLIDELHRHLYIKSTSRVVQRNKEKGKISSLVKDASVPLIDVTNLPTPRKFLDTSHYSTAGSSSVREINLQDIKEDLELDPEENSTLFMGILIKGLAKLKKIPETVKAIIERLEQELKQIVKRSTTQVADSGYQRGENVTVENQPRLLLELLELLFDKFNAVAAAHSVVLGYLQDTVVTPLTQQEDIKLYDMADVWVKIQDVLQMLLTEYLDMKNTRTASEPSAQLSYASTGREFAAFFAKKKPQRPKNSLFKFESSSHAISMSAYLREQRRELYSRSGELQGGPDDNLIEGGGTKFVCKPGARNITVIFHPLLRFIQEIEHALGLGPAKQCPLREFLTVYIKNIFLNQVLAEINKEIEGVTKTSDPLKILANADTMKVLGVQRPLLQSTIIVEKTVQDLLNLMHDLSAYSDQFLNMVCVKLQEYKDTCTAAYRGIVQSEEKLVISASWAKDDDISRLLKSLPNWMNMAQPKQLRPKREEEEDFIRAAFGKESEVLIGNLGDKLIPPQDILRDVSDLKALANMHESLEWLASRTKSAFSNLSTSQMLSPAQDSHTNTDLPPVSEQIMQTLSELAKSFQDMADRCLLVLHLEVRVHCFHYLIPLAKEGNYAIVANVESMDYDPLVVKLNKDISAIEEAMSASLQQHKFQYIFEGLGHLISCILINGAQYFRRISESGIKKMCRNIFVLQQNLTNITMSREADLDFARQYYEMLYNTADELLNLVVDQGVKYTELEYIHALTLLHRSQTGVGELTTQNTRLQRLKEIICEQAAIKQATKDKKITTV
UniProt P12259: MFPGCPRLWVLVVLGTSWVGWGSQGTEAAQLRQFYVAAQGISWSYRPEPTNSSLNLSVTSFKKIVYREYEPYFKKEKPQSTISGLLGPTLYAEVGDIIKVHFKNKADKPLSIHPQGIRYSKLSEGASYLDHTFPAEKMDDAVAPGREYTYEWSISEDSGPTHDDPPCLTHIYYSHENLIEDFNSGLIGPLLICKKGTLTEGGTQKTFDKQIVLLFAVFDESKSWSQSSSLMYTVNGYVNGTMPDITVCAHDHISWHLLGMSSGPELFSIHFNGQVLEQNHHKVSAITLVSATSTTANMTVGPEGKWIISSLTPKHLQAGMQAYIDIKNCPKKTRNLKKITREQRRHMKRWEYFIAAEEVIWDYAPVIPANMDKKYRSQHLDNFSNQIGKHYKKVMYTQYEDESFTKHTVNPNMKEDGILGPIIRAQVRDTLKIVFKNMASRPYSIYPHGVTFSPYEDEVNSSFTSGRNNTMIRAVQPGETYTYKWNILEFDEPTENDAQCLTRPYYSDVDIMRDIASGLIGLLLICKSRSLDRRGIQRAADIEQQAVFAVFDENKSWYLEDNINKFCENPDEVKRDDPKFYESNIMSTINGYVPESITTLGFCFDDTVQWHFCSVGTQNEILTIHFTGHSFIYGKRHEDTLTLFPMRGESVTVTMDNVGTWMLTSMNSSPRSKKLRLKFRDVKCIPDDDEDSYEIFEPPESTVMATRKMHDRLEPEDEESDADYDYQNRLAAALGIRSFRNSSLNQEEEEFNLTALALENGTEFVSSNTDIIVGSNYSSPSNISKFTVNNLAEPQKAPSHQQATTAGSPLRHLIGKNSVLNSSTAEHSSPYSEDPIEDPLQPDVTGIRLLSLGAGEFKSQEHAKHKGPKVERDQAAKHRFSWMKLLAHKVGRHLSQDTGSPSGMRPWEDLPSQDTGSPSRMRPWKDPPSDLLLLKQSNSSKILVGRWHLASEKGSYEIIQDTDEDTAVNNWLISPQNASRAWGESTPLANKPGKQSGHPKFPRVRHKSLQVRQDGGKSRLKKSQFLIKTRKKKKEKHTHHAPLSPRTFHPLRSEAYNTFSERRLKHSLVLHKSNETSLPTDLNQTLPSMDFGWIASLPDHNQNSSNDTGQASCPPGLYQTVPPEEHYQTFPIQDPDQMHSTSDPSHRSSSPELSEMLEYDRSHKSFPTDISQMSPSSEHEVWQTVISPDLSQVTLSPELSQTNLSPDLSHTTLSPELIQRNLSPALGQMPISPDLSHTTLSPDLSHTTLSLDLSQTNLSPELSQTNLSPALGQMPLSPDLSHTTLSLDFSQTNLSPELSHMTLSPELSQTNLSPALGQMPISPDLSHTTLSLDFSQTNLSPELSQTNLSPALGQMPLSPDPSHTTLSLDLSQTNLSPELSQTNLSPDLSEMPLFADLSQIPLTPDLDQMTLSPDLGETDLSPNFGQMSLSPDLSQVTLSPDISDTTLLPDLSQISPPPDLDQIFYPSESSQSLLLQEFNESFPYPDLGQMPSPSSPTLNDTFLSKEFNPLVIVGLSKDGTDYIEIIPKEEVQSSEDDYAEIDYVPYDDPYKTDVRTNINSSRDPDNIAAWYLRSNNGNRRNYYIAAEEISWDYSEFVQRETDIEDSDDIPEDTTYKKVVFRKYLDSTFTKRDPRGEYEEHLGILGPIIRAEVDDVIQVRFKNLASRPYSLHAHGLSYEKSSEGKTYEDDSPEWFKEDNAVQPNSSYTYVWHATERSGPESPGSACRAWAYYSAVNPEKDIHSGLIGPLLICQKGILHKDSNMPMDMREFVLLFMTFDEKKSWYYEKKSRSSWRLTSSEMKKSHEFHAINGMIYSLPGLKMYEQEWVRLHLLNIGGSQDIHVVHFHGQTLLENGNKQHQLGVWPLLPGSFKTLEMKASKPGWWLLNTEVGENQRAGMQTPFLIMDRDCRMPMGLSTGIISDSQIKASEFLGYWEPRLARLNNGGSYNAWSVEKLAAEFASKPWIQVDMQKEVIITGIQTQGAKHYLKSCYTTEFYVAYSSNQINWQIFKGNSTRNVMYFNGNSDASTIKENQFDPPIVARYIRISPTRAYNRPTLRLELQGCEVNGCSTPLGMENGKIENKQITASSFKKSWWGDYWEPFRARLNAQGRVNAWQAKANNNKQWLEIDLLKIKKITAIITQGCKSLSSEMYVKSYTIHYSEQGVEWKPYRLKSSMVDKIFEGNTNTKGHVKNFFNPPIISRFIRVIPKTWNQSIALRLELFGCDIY
UniProt Q9NSI2: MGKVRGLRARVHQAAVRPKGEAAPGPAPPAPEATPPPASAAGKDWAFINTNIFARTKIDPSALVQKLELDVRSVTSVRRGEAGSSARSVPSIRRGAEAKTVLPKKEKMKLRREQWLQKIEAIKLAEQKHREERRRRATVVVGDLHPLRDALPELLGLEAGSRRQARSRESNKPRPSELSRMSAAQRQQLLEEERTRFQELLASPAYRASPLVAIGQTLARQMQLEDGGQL
UniProt O60645: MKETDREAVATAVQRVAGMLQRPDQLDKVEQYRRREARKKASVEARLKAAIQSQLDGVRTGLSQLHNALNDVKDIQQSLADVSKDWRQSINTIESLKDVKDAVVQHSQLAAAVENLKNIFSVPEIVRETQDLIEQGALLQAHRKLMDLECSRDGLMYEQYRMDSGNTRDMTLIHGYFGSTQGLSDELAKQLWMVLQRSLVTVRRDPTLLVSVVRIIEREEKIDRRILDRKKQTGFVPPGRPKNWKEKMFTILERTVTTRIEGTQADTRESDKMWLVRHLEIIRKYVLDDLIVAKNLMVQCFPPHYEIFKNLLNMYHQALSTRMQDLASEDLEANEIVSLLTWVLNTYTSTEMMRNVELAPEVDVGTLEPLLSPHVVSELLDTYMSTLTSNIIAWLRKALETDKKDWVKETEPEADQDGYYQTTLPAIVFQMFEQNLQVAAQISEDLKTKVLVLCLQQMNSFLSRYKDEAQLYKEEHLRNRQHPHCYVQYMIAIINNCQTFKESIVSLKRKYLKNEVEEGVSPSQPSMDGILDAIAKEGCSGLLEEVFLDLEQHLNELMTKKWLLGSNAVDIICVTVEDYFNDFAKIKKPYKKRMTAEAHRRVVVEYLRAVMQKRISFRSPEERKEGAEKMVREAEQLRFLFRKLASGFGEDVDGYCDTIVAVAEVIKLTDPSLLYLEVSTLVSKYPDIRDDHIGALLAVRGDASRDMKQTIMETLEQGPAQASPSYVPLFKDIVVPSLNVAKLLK
UniProt Q6P587: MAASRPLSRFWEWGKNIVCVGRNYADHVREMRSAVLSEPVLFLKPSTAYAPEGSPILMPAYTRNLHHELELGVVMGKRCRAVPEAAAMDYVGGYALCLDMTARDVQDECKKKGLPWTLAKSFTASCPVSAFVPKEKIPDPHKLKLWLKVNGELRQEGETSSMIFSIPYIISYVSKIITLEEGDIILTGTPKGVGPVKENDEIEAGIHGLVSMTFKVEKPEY
UniProt Q96GK7: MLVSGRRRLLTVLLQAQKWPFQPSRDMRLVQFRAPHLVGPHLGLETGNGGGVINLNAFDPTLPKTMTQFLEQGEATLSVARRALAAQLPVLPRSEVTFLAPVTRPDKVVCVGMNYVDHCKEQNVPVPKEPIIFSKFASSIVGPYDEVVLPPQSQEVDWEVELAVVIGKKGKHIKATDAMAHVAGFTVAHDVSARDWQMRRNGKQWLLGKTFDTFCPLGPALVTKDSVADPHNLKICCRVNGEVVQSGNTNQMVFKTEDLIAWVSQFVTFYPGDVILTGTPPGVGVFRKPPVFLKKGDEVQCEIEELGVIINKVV
UniProt Q96KR6: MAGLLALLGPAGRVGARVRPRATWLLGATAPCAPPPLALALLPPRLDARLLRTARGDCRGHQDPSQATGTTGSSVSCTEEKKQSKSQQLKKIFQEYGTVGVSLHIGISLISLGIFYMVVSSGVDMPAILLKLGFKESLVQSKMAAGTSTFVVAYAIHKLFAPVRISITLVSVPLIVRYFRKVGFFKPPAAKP

Compound in one experiment: Cc1cc(Nc2cc(N3CCN(C)CC3)nc(Sc3ccc(NC(=O)C4CC4)cc3)n2)n[nH]1 [tozasertib]
As to the kind of experiment: log2 fold change, soluble protein after heating vs DMSO (PISA); higher = thermal stabilisation; K562 lysate, 10 uM; active = over 0.2 and 3.5 SD of the protein, either way, in both replicates (recomputed). In a few lines: (§1)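 Quantification was by TMTpro 16plex LC-MS/MS with equalised channel sums, applied to the supernatant after 21,000xg for 90 min. Samples were crude K562 extract at 1 mg/mL protein in PBS pH 7.4 with 1 mM MgCl2, treated with 10 μM compound for 30 min, heated for 3 min across 48°C-58°C, pooled and brought to 0.5% NP-40 at 4°C. Values are log-two fold changes in thermal stability relative to solvent controls, from duplicates.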
Take ETNK1 (UniProt Q9HBU6): the log2 fold change is inactive: 0.038.
As to FAM83A (UniProt Q86UY5), the log2 fold change was inactive: -0.013.
For FADS3 (UniProt Q9Y5Q0), the log2 fold change is inactive: 0.079.
On the same count and under the same terms, the value for EXOC2 (UniProt Q96KP1) was inactive: 0.001; that for FAM120A isoform 6 (UniProt Q9NZB2) was inactive: 0; that for EXOSC5 (UniProt Q9NQT4) was inactive: 0.01.
Turning to FAM162A (UniProt Q96A26), the log2 fold change was inactive: -0.049.
Same read-out and setting: the value for EZH2 isoform 2 (UniProt Q15910) was inactive: -0.074.
Still for that read-out and setting: the same measure for EXOC4 (UniProt Q96A65): inactive: -0.028; for EXOSC4 (UniProt Q9NPD3): inactive: 0.014; for ESS2 (UniProt Q96DF8): inactive: -0.006.
The same measure, in the same setting: the same measure for EXOC6 (UniProt Q8TAG9): inactive: 0.029; for FADS1, A0A0A0MR51: inactive: 0.041; for F5 (UniProt P12259): inactive: -0.077.
Turning to FAM207A (UniProt Q9NSI2), the log2 fold change is inactive: 0.066.
As for ESD (UniProt P10768), the log2 fold change was inactive: -0.009.
The same measure, in the same setting: the same measure for FAM122A (UniProt Q96E09): inactive: -0.005.
On the same count and under the same terms, the same measure for FAM114A2 (UniProt Q9NRY5): inactive: -0.108; for FAM136A (UniProt Q96C01): inactive: 0.029.
Turning to EXOC3 (UniProt O60645), the log2 fold change was inactive: 0.019.
Regarding EYA3 (UniProt Q99504), the log2 fold change is inactive: 0.106.
As to ERVK3-1, A0A0U1RQV1, the log2 fold change was inactive: -0.097.
Still for that read-out and setting: the same measure for ERLEC1 (UniProt Q96DZ1): inactive: 0.013.
Same read-out and setting: the value for ESYT1 isoform 2 (UniProt Q9BSJ8) was inactive: 0.016.
Same read-out and setting: the same measure for FAHD1 (UniProt Q6P587): inactive: 0.018; for FAM49B (UniProt Q9NUQ9): inactive: 0.016.
In the case of FABP5 (UniProt Q01469), the log2 fold change is inactive: 0.097.
FAM83D (UniProt Q9H4H8): the log2 fold change was inactive: -0.038.
Take EXTL2 (UniProt Q9UBQ6): the log2 fold change was inactive: 0.028.
Still for that read-out and setting: the same measure for FAM118A (UniProt Q9NWS6): inactive: -0.016; for ESYT2 (UniProt H7BXI1): inactive: 0.063.
As for ETFB (UniProt P38117), the log2 fold change is inactive: 0.021.
Same read-out and setting: the value for ERP29 (UniProt P30040) was inactive: 0.022; that for FAM50A (UniProt Q14320) was inactive: -0.004.
The same measure, in the same setting: the value for ERICH1 (UniProt Q86X53) was inactive: -0.08; that for FAHD2A (UniProt Q96GK7) was inactive: -0.007.
The same measure, in the same setting: the same measure for FAM210B (UniProt Q96KR6): inactive: 0.086.
In the case of ETF1 (UniProt P62495), the log2 fold change was inactive: -0.018.
Turning to EXOSC6 (UniProt Q5RKV6), the log2 fold change is inactive: 0.017.
Still for that read-out and setting: the value for EXOC7 (UniProt Q9UPT5) was inactive: 0.015.

Compound in another experiment: Cc1ccc(-n2nc(C(C)(C)C)cc2NC(=O)Nc2ccc(OCCN3CCOCC3)c3ccccc23)cc1 [doramapimod]
The experiment is described as above. In a few lines: as §1
ETNK1 (UniProt Q9HBU6): the log2 fold change was inactive: -0.016.
The same measure, in the same setting: the same measure for FAM83A (UniProt Q86UY5): inactive: 0.195.
On the same count and under the same terms, the value for FADS3 (UniProt Q9Y5Q0) was inactive: -0.001.
Take EXOC2 (UniProt Q96KP1): the log2 fold change was inactive: 0.042.
The same measure, in the same setting: the same measure for FAM120A isoform 6 (UniProt Q9NZB2): inactive: -0.025; for EXOSC5 (UniProt Q9NQT4): inactive: -0.01; for FAM162A (UniProt Q96A26): inactive: -0.026.
Same read-out and setting: the same measure for EZH2 isoform 2 (UniProt Q15910): inactive: 0.016; for EXOC4 (UniProt Q96A65): inactive: -0.023; for EXOSC4 (UniProt Q9NPD3): inactive: 0.063.
The same measure, in the same setting: the value for ESS2 (UniProt Q96DF8) was inactive: 0.112; that for EXOC6 (UniProt Q8TAG9) was inactive: 0.004.
FADS1, A0A0A0MR51: the log2 fold change was inactive: 0.018.
As for F5 (UniProt P12259), the log2 fold change is inactive: -0.016.
FAM207A (UniProt Q9NSI2): the log2 fold change was inactive: 0.009.
Regarding ESD (UniProt P10768), the log2 fold change was inactive: -0.014.
On the same count and under the same terms, the value for FAM122A (UniProt Q96E09) was inactive: 0.027; that for FAM114A2 (UniProt Q9NRY5) was inactive: -0.011.
As to FAM136A (UniProt Q96C01), the log2 fold change was inactive: -0.011.
On the same count and under the same terms, the same measure for EXOC3 (UniProt O60645): inactive: 0.041.
As to EYA3 (UniProt Q99504), the log2 fold change is inactive: -0.036.
Still for that read-out and setting: the value for ERVK3-1, A0A0U1RQV1 was inactive: 0.022; that for ERLEC1 (UniProt Q96DZ1) was inactive: -0.052; that for ESYT1 isoform 2 (UniProt Q9BSJ8) was inactive: 0.009.
Consider FAHD1 (UniProt Q6P587), for which the log2 fold change is inactive: -0.041.
With FAM49B (UniProt Q9NUQ9), the log2 fold change is inactive: 0.011.
Take FABP5 (UniProt Q01469): the log2 fold change was inactive: 0.044.
For the target FAM83D (UniProt Q9H4H8), the log2 fold change was inactive: 0.009.
For the target EXTL2 (UniProt Q9UBQ6), the log2 fold change was inactive: 0.058.
The same measure, in the same setting: the value for FAM118A (UniProt Q9NWS6) was inactive: -0.013; that for ESYT2 (UniProt H7BXI1) was inactive: 0.018.
In the case of ETFB (UniProt P38117), the log2 fold change is inactive: -0.013.
As for ERP29 (UniProt P30040), the log2 fold change was inactive: -0.043.
The same measure, in the same setting: the same measure for FAM50A (UniProt Q14320): inactive: 0.008.
For the target ERICH1 (UniProt Q86X53), the log2 fold change is inactive: -0.035.
For FAHD2A (UniProt Q96GK7), the log2 fold change is inactive: 0.014.
Turning to FAM210B (UniProt Q96KR6), the log2 fold change is inactive: -0.085.
Same read-out and setting: the same measure for ETF1 (UniProt P62495): inactive: 0.022.
EXOSC6 (UniProt Q5RKV6): the log2 fold change was inactive: 0.025.
In the case of EXOC7 (UniProt Q9UPT5), the log2 fold change is inactive: 0.004.
